Results taken from patent publication US20140086913A1 (Gilead, published 2014).
Results are given in words; binding and its absence hold for the method and conditions named. Some entries that bind do so weakly or less than the wild type. For some assays here: Tags and fused reporters may be left off the sequences shown.

T1: mouse ECD-DDR1-Fc (mouse; human, UniProt Q03146 22-414)
T1 construct: also called mouse DDR1-ECD; wild-type mouse DDR1-ECD; not shown: human IgG1 Fc of the vector pFuse-hIgG1-Fc1 (Invivogen)
T1 sequence: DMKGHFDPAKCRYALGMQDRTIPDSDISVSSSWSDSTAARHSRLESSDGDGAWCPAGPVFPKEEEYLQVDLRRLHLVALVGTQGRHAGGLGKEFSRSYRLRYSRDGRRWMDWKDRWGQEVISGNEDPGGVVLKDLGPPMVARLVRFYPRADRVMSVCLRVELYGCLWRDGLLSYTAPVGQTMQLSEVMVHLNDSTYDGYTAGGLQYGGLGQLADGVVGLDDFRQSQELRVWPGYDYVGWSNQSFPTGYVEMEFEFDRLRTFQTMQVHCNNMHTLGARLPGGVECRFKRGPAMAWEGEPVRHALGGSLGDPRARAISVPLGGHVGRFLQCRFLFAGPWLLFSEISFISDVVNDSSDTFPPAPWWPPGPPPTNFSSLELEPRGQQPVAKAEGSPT

T2: mouse DDR1 stably expressed on HEK293 cells (mouse) (UniProt Q03146)
T2 sequence (looked up): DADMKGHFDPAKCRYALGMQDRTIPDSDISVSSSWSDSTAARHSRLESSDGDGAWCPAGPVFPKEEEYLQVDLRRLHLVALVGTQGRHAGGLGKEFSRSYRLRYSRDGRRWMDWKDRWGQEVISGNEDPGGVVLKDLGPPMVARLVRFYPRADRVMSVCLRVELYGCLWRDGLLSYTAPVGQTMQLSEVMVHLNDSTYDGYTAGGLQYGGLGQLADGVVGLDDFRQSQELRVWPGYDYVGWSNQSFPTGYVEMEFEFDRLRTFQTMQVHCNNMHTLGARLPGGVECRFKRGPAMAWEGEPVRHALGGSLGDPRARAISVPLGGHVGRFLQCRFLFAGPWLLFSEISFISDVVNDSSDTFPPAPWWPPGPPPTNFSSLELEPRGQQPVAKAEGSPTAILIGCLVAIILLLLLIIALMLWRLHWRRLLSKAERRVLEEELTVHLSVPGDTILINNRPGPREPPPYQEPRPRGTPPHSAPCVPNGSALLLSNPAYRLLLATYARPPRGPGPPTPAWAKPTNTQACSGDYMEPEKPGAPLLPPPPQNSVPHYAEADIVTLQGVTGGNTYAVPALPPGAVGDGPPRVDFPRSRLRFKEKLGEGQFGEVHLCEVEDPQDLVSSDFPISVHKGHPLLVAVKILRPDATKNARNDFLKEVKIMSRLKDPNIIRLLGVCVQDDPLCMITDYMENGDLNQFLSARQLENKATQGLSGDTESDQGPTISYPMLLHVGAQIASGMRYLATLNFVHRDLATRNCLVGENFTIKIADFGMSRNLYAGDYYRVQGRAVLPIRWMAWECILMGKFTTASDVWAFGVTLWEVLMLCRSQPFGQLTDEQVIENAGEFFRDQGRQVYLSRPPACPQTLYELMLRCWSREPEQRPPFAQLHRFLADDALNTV


Columns and labels:
[1] = biological target: human DDR1-ECD in the human IgG1-Fc expression vector (Example 8) (human) (UniProt Q08345); test: ELISA of Example 8
[2] = biological target: T1, mouse ECD-DDR1-Fc; test: ELISA of Example 8
[3] = biological target: T2, mouse DDR1 stably expressed on HEK293 cells (mouse); test: flow cytometry on transfected HEK293 cells

| Binder | binding [1] | binding [2] | binding [3] |
| --- | --- | --- | --- |
| AB2061 (antibody, V domains shown, mouse hybridoma mAb) VH: EIQLQQSGPELVNPGASVKVSCKASGYSFTDYNMYWVKQSHGKSLEWIGYIDPYNGGTSYNQKFKGKATLTVDKSSSTAFMHLNSLTSEDSAVYYCAREYYGSRLWYFDVWGAGTAVTVSS VL: DIVMTQSPSSLAMSVGQKVTMSCKSSQSLLNRNNQKNYLAWYQQKPGQSPKLLVYFASTRESGVPDRFIGSGSGTDFTLTLSSVRAEDLAENFCQQHYSTPFTFGSGTRLEIKR | binds | binds | – |
| AB2074 (antibody, V domains shown, mouse hybridoma mAb) VH: EIQLQQSGPELVNPGASVKVSCKASGYSFTDYNMYWVKQSHGKSLEWIGYIDPYNGGTSYNQKFKGKATLTVDKSSSTAFMHLNSLTSEDSAVYYCAREYYGSRLWYFDVWGAGTAVTVSS VL: DIVMTQSPSSLAMSVGQKVTMSCKSSQSLLNRNNQKNYLAWYQQKPGQSPKLLVYFASTRESGVPDRFIGSGSGTDFTLTLSSVRAEDLAENFCQQHYSTPFTFGSGTRLEIKR | binds | binds | – |
| AB2078 (antibody, V domains shown, mouse hybridoma mAb) VH: EIQLQQSGPELVNPGASVKVSCKASGYSFTDYNMYWVKQSHGKSLEWIGYIDPYNGGTSYNQKFKGKATLTVDKSSSTAFMHLNSLTSEDSAVYYCAREYYGSRLWYFDVWGAGTAVTVSS VL: DIVMTQSPSSLAMSVGQKVTMSCKSSQSLLNRNNQKNYLAWYQQKPGQSPKLLVYFASTRESGVPDRFIGSGSGTDFTLTLSSVRAEDLAENFCQQHYSTPFTFGSGTRLEIKR | binds | binds | binds |
| AB2004 (antibody, V domains shown, mouse hybridoma mAb) VH: DVHLQESGPDLVKPSQSLSLTCTVTDYSITSGYGWHWIRQFPGNKLEWMGYIHYGGSTKYNSSLKSRISITRDTSKNQFFLQLKSVTTDDTGTYYCATSGNYGFAYWGQGTLVTVSA VL: DIVLTQSPTSLAVSLGQRATMSCRASESVDDYGTSFMHWYQQKPGQPPKLLIYRASNLESGIPARFSGSGSRADFTLSINPVEPDDVATYYCQQSNEDPFTFGSGTKLEIKR | – | – | binds |
